The record followed here is paper PMC5666619.

Protein sequences, listed by entry. Tags and fused reporters are not part of them.
UniProt A8DY81: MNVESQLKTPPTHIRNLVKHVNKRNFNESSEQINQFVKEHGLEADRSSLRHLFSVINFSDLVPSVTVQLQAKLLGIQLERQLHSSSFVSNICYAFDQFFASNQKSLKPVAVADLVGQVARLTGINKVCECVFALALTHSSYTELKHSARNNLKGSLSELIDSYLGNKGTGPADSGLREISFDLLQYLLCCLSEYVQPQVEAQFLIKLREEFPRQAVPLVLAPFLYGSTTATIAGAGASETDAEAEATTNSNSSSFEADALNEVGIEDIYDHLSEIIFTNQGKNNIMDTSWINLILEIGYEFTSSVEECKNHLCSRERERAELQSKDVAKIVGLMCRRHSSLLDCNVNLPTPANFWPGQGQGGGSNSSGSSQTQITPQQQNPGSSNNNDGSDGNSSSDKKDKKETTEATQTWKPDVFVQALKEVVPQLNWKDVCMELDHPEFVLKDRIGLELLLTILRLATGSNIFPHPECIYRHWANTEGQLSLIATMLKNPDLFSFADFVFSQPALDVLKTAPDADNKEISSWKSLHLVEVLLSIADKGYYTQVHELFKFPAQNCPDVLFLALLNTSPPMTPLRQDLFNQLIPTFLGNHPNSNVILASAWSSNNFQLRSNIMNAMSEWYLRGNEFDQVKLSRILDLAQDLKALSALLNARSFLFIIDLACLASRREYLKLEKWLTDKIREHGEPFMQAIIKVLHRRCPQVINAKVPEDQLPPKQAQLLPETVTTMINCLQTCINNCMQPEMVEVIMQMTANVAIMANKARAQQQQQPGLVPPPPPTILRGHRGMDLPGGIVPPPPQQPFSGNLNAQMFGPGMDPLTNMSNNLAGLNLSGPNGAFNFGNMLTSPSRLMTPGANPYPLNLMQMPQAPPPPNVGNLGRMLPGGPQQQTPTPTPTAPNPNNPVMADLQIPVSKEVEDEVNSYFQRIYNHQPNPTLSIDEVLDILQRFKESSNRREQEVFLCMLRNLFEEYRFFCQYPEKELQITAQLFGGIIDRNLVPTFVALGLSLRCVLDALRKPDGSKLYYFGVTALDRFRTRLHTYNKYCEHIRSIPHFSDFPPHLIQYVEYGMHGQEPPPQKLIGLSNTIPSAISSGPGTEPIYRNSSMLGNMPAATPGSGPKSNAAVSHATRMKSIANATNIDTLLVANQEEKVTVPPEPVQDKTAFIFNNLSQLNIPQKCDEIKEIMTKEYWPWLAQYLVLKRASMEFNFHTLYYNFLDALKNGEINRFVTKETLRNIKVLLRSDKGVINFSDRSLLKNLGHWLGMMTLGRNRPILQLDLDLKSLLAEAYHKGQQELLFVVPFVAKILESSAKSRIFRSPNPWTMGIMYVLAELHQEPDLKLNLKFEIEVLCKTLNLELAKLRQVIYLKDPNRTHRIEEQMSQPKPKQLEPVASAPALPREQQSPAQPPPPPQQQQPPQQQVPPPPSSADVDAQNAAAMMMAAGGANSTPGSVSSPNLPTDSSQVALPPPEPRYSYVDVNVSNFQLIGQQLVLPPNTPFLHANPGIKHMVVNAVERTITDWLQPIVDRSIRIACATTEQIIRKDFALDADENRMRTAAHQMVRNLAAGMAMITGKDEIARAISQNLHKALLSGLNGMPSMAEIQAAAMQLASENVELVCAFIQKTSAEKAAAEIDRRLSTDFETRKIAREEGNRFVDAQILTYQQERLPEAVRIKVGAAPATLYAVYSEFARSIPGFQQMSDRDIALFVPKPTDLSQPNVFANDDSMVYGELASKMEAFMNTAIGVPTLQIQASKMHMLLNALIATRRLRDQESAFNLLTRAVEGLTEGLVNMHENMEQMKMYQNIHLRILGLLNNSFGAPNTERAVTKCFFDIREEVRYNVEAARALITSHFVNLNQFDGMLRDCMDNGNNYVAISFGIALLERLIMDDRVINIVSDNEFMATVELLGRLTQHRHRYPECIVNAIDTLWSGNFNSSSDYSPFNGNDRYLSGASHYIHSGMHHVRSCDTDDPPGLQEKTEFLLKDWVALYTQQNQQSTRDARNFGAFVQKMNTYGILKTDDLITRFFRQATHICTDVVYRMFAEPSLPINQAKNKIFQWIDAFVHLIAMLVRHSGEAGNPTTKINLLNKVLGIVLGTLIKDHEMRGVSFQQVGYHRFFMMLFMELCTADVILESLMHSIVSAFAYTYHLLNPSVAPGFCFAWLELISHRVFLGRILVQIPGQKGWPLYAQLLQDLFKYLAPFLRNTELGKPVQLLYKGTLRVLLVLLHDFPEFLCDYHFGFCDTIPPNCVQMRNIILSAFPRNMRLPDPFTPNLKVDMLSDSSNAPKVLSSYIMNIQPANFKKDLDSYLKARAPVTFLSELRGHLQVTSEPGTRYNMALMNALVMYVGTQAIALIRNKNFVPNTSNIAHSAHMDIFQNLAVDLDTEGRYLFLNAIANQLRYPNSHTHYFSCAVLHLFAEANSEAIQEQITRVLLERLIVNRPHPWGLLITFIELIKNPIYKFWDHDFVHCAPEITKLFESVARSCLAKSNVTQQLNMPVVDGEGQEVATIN

The target in this experiment is T1, GFP-Aub (Aubergine) (Drosophila) (UniProt O76922).
T1 sequence: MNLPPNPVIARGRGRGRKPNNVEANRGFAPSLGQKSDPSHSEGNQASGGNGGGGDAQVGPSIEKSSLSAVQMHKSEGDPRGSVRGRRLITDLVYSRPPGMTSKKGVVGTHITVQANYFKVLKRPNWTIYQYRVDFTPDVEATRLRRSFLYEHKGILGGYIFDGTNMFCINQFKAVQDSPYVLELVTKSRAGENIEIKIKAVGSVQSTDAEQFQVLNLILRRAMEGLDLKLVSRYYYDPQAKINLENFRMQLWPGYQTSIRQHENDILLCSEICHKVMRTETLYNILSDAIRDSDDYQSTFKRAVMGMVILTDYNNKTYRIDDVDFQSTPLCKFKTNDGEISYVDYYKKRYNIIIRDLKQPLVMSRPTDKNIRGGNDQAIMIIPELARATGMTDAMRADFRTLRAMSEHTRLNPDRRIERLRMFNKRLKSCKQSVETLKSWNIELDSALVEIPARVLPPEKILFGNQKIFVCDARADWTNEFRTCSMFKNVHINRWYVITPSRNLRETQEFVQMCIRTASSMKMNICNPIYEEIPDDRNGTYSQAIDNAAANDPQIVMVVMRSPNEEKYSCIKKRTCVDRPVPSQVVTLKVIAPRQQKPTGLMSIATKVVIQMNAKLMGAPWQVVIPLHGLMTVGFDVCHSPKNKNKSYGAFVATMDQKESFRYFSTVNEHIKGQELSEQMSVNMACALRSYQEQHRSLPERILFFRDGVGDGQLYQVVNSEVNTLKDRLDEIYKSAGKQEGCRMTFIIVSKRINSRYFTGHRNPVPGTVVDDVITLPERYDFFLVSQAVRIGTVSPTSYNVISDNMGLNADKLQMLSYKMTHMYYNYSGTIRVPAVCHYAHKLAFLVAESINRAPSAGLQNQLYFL
The experiment in a line: co-IP; ovarian extracts (60 ovaries, 3-day-old females) in DXB-150 (25 mM Hepes-KOH pH 6.8, 250 mM sucrose, 1 mM MgCl2, 1 mM DTT, 150 mM NaCl, 0.1% Triton X-100) with RNase inhibitor or RNase A; IP with mouse anti-GFP (3E6) on Dynabeads Protein G, 3 h at 4°C; Western blot; wild-type extract as mock IP. (In general: In western blotting, separated proteins are transferred to a membrane and probed.)

No constants are given. Whether binding was seen depends on the method and setting. In cells and extracts the contact can be indirect. Some binding calls cover weakened binding; strength is not graded here. Sequences can lack the tags named with a protein.

Consider NOT1 (from UniProt A8DY81 1-2505), for which the binding result was “binds”.
